Measurements reported in PMC10562466.
Results are given in words; binding and its absence hold for the method and conditions named. A result given as binding can be weak or reduced; the word gives no strength. For part of these data: Tags and fused reporters may be left off the sequences shown. For part of these data: In cells and extracts the contact can be indirect. Values belong to the binder of their own block, whether it stands above or below them.

Experiments:
[1] = molecular target: AKT, endogenous (human (endogenous in T24 and UMUC3)); experiment: co-IP; endogenous proteins in T24 and UMUC3 cell lysate; antibody-conjugated magnetic beads, overnight at 4 °C; also after CDCA8 knock-down or PTEN knock-down
[2] = molecular target: AKT, recombinant protein of the GST-pulldown assay; experiment: pull-down; GST-fused protein on glutathione-Sepharose beads incubated with recombinant His-tagged protein at 4 °C for 2 h; immunoblotting; both purified
AKT, HA-tagged = experiment: co-IP; exogenous tagged proteins (3xFlag-CDCA8 constructs, HA-AKT, GFP-PTEN) overexpressed in 293 T cells; antibody-conjugated magnetic beads, overnight at 4 °C

binding [1]: binds
B1: cell cycle division-related gene 8 (CDCA8) protein, endogenous (protein, UniProt Q53HL2 1-280)
chain: MAPRKGSSRVAKTNSLRRRKLASFLKDFDREVEIRIKQIESDRQNLLKEVDNLYNIEILRLPKALREMNWLDYFALGGNKQALEEAATADLDITEINKLTAEAIQTPLKSAKTRKVIQVDEMIVEEEEEEENERKNLQTARVKRCPPSKKRTQSIQGKGKGKRSSRANTVTPAVGRLEVSMVKPTPGLTPRFDSRVFKTPGLRTPAAGERIYNISGNGSPLADSKEIFLTVPVGGGESLRLLASDLQRHSIAQLDPEALGNIKKLSNRLAQICSSIRTHK

binding [2]: binds
B2: CDCA8, recombinant protein of the GST-pulldown assay (protein, UniProt Q53HL2 1-280)
chain: MAPRKGSSRVAKTNSLRRRKLASFLKDFDREVEIRIKQIESDRQNLLKEVDNLYNIEILRLPKALREMNWLDYFALGGNKQALEEAATADLDITEINKLTAEAIQTPLKSAKTRKVIQVDEMIVEEEEEEENERKNLQTARVKRCPPSKKRTQSIQGKGKGKRSSRANTVTPAVGRLEVSMVKPTPGLTPRFDSRVFKTPGLRTPAAGERIYNISGNGSPLADSKEIFLTVPVGGGESLRLLASDLQRHSIAQLDPEALGNIKKLSNRLAQICSSIRTHK

binding (AKT, HA-tagged): binds
B3: CDCA8 full-length (CDCA8-FL), 3x Flag-tagged (protein, UniProt Q53HL2 1-280)
chain: MAPRKGSSRVAKTNSLRRRKLASFLKDFDREVEIRIKQIESDRQNLLKEVDNLYNIEILRLPKALREMNWLDYFALGGNKQALEEAATADLDITEINKLTAEAIQTPLKSAKTRKVIQVDEMIVEEEEEEENERKNLQTARVKRCPPSKKRTQSIQGKGKGKRSSRANTVTPAVGRLEVSMVKPTPGLTPRFDSRVFKTPGLRTPAAGERIYNISGNGSPLADSKEIFLTVPVGGGESLRLLASDLQRHSIAQLDPEALGNIKKLSNRLAQICSSIRTHK
